Data source: PubChem BioAssay AID1259267 (Sanger Institute, 2017)
Purpose: 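Which kinases and bowel-cancer genes GP5D cells need, with or without anchor drugs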 (primary screen). Cells: human GP5D colorectal cancer cells. Reagent: siRNA pool against human genes. Conditions: anchor drugs at low dose: BYL719 1 µM, cetuximab 5 µg/ml, trametinib 10 nM, or DMSO vehicle. Read-out: 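Mean replicate viability versus non-targeting pool, given as knock-down-alone robust z-score, DMSO fraction, and synergy with low-dose BYL719, cetuximab or trametinib (1 µM, 5 µg/ml, 10 nM)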. Reading the numbers: robust z-score, knock-down alone and viability with DMSO: higher = more viable cells; synergy score with trametinib and synergy score with BYL719 and synergy score with cetuximab: higher = stronger synthetic lethal synergy with drug. Hit rule: 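a robust z-score below -3 for the knock-down by itself makes a gene active, i.e. essential alone; synergy scores are ignored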. Calls: active = essential alone; inactive = not essential.
In all, the deposit lists 794 reagents; this is an unselected part. 9 of all reagents (1.1%) were called active. 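Viability capped at 1; calls reflect loss of viability from knock-down alone, not synergy with drugs.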 The record does not give: the amount of reagent, the time to read-out.

The first 3 records, to show the layout:
gene knocked down | robust z-score, knock-down alone | viability with DMSO (fraction of control) | synergy score with trametinib | synergy score with BYL719 | synergy score with cetuximab | activity call
CTCF | 0.029 | 0.833 | 0.25 | -0.0398 | 0.272 | inactive
DYRK2 | 0.817 | 1 | 0.434 | -0.18 | 0.246 | inactive
CDK19 | 0.817 | 1 | -0.197 | -0.152 | -0.142 | inactive

The listing, from the start:
gene knocked down | robust z-score, knock-down alone | viability with DMSO (fraction of control) | synergy score with trametinib | synergy score with BYL719 | synergy score with cetuximab | activity call
CTCF | 0.029 | 0.833 | 0.25 | -0.0398 | 0.272 | inactive
DYRK2 | 0.817 | 1 | 0.434 | -0.18 | 0.246 | inactive
CDK19 | 0.817 | 1 | -0.197 | -0.152 | -0.142 | inactive
N4BP2 | 0.817 | 1 | -0.145 | -0.304 | -0.142 | inactive
NEK11 | 0.115 | 0.851 | 0.185 | -0.119 | 0.0701 | inactive
PAPSS1 | 0.817 | 1 | 0.146 | -0.109 | -0.142 | inactive
OXSR1 | -0.109 | 0.804 | 0.217 | -0.0714 | 0.211 | inactive
ARAF | 0.817 | 1 | 0.141 | -0.083 | -0.077 | inactive
TP53BP1 | -2.03 | 0.396 | -0.557 | -0.362 | -0.415 | inactive
IRAK1 | -1.03 | 0.608 | 0.178 | -0.333 | 0.104 | inactive
SOX9 | 0.144 | 0.857 | -0.0931 | -0.439 | -0.264 | inactive
CASP8 | 0.817 | 1 | -0.197 | -0.361 | -0.142 | inactive
KSR2 | -0.13 | 0.799 | -0.0725 | -0.164 | -0.12 | inactive
BRD2 | -0.596 | 0.7 | -0.292 | -0.251 | -0.399 | inactive
YES1 | 0.817 | 1 | -0.152 | -0.291 | -0.142 | inactive
CDK12 | 0.817 | 1 | -0.086 | -0.261 | -0.117 | inactive
MAPK14 | 0.817 | 1 | -0.197 | -0.361 | -0.142 | inactive
CAMK1D | 0.817 | 1 | -0.14 | -0.251 | -0.142 | inactive
NEK8 | 0.0982 | 0.848 | 0.122 | 0.061 | -0.000921 | inactive
ACVR2B | -1.32 | 0.547 | -0.273 | -0.367 | -0.353 | inactive
SMAD2 | -1.86 | 0.432 | -0.197 | -0.287 | -0.184 | inactive
NRK | 0.817 | 1 | -0.197 | -0.205 | -0.142 | inactive
TP53 | -0.66 | 0.687 | -0.148 | -0.167 | -0.224 | inactive
SCYL1 | 0.817 | 1 | -0.197 | -0.361 | -0.142 | inactive
BPTF | 0.163 | 0.861 | 0.0874 | -0.000116 | -0.149 | inactive
CAMK4 | -0.905 | 0.635 | -0.192 | -0.327 | -0.213 | inactive
SCYL3 | 0.175 | 0.864 | -0.306 | -0.448 | -0.259 | inactive
FGFR4 | 0.524 | 0.938 | -0.247 | -0.271 | -0.195 | inactive
PRKCQ | 0.301 | 0.891 | -0.0343 | -0.431 | -0.0394 | inactive
TPD52L3 | -0.276 | 0.768 | 0.0256 | -0.388 | -0.164 | inactive
SRMS | 0.817 | 1 | -0.0113 | -0.0473 | 0.0388 | inactive
PFKFB3 | 0.817 | 1 | 0.213 | -0.045 | -0.0767 | inactive
ANKK1 | -0.346 | 0.753 | -0.057 | -0.143 | -0.0326 | inactive
BMPR1B | -0.794 | 0.659 | -0.187 | -0.245 | -0.325 | inactive
IPPK | -0.693 | 0.68 | -0.335 | -0.113 | -0.112 | inactive
ERBB3 | -1.26 | 0.559 | 0.17 | -0.0868 | -0.00299 | inactive
IKBKB | -0.897 | 0.637 | 0.22 | 0.0479 | -0.0104 | inactive
MAP4K4 | 0.751 | 0.986 | -0.0904 | -0.14 | -0.154 | inactive
CDC42BPG | 0.817 | 1 | -0.0326 | 0.0238 | -0.053 | inactive
SNRK | 0.546 | 0.943 | -0.0318 | 0.0592 | 0 | inactive
PANK4 | -0.0458 | 0.817 | 0.125 | 0.195 | 0.0952 | inactive
PNKP | 0.817 | 1 | 0.312 | -0.0651 | -0.126 | inactive
TTK | 0.0347 | 0.834 | 0.131 | -0.209 | -0.0766 | inactive
PIK3R1 | 0.369 | 0.905 | 0.068 | -0.238 | -0.0646 | inactive
PRKAR2B | 0.251 | 0.88 | 0.106 | 0.0225 | 0.0239 | inactive
PAK2 | 0.817 | 1 | 0.0842 | -0.285 | -0.142 | inactive
CHKA | 0.267 | 0.884 | -0.0442 | -0.0569 | 0.123 | inactive
RAD21 | -0.248 | 0.774 | 0.0155 | 0.033 | 0.0906 | inactive
XYLB | 0.817 | 1 | 0.0741 | -0.0788 | -0.142 | inactive
HK1 | 0.817 | 1 | -0.113 | -0.14 | -0.142 | inactive
LRRK1 | 0.817 | 1 | -0.101 | -0.27 | 0.025 | inactive
WNK1 | 0.817 | 1 | -0.197 | -0.0896 | -0.142 | inactive
MLKL | -0.423 | 0.737 | -0.335 | -0.419 | -0.113 | inactive
UCK1 | 0.725 | 0.981 | 0.118 | -0.073 | -0.159 | inactive
TTBK1 | -0.715 | 0.675 | -0.149 | -0.264 | -0.42 | inactive
KHK | 0.817 | 1 | 0.0985 | -0.096 | -0.142 | inactive
ACVR2A | -0.244 | 0.775 | -0.143 | -0.21 | -0.204 | inactive
EPHA1 | 0.817 | 1 | 0.0402 | -0.102 | 0.0796 | inactive
CKM | 0.635 | 0.961 | 0.00277 | -0.385 | -0.00967 | inactive
EGFR | -1.35 | 0.541 | -0.144 | -0.244 | -0.298 | inactive
MPP1 | 0.817 | 1 | 0.16 | -0.146 | -0.142 | inactive
STK35 | -1.02 | 0.61 | 0.00114 | 0.0499 | 0.0756 | inactive
IP6K3 | -1.1 | 0.594 | -0.0351 | -0.1 | 0.0196 | inactive
